# Measurements taken from PubChem BioAssay AID493014 (National Center for Advancing Translational Sciences (NCATS), 2011).
# This is one part of the list. Further columns of the screen follow, without active or inactive calls. Most of these compounds were active or inconclusive in the main read-out, so they are no random draw. Potencies come from curve fits of mixed quality, noted in brackets.
# Test: qHTS Assay to Find Inhibitors of Chronic Active B-Cell Receptor Signaling
# Details: ABC-DLBCL IkBa-CBG/CBR reporter, luminescence ratio (green luciferase fused to IkBa over red control in TMD8 lymphoma cells), 4 h
# Outline: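 Doxycycline induced both beetle luciferases in TMD8 lymphoma cells; IKK-driven degradation limits the IkappaBalpha-fused green signal, while red luminescence normalises for cell number and nonspecific effects. Compounds tested up to 46 uM, 4 hrs.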
# [1] = measured here: CBR red luminescence, cell number
# [2] = measured here: IkBa-CBG green luminescence
SMILES,AC50 [1],AC50 [2]
CCN(CC)C(=O)Oc1ccc(Cl)c2ccccc12,"35.5 µM [rising, single point]",–
CCCCn1c(N)c(N(CCOC)C(=O)CN2CC=C(c3ccccc3)CC2)c(=O)[nH]c1=O,"3.55 µM [falling, single point]",–
O=c1[nH]c2ccccc2nc1/C=C(\O)c1cccs1,"2.51 µM [falling, full curve]",–
CCOC(=O)C(O)(c1ccc(N(C)C(=O)c2ccc(Cl)c(Cl)c2)cc1)C(F)(F)F (stereo not given),"18.4 µM [falling, single point]",–
O=c1[nH]c(O)c(N=Nc2ccc3c(c2)OCCO3)c(=O)[nH]1,"6.31 µM [falling, partial curve, poor fit]",–
CC/C(=N\NC(=O)c1ccccc1)c1c(O)n(Cc2ccccc2)c(=O)[nH]c1=O,"3.55 µM [falling, partial curve]",–
O=C1NC(=O)[C@]2(Cc3ccccc3N3CCN(c4ccccc4)CC32)C(=O)N1Cc1ccccc1 (stereo not given in full),"7.08 µM [falling, partial curve]",–
CCN1C(=O)N(CC)C(=O)C2(Cc3ccccc3N3CCN(c4ccccc4)CC32)C1=O (stereo not given),"4.47 µM [falling, partial curve]",–
COc1cccc(OC)c1C1=NCC(=O)Nc2c1oc1ccc(Br)cc21,"7.31 µM [rising, partial curve]","11.6 µM [falling, partial curve]"
COc1ccc(CNC(=O)Cn2c(=O)oc3cc(S(=O)(=O)NCc4ccccc4)ccc32)cc1,"35.5 µM [rising, single point]",–
Cc1ccc2cccc(OC(=O)N3CCCC3)c2n1,"18.4 µM [rising, partial curve, poor fit]",–
COc1ccc(N2CCN(Cc3nc4ccccc4[nH]3)CC2)cc1,"15.8 µM [rising, partial curve, poor fit]",–
COCCNC(=O)c1c(NC(=O)c2ccc(Br)o2)n(Cc2ccccc2)c2nc3ccccc3nc12,–,"29.1 µM [falling, single point]"
Cc1c(N=Cc2c(O)n(CCc3ccccc3)c(=O)[nH]c2=O)c(=O)n(-c2ccccc2)n1C,"0.517 µM [rising, partial curve, poor fit]",–
COc1ccc(-c2csc(NC(=O)C3CCN(C(=O)c4ccc(F)cc4)CC3)n2)cc1OC,"35.5 µM [falling, single point]",–
CCN(CC)C(=O)c1ccc(NC(=O)c2cccc(F)c2)cc1,"7.31 µM [falling, single point]",–
COc1ccc(NC2=NCC(C)S2)cc1 (stereo not given),"0.0891 µM [falling, full curve, poor fit]",–
COc1ccc(NC(=O)N(CCO)Cc2cc3c(C)cc(C)cc3[nH]c2=O)cc1,"3.55 µM [rising, single point]",–
C=CCn1c(O)c(C(C)=NCCN2CCCCC2)c(=O)[nH]c1=O,"29.1 µM [falling, single point]",–
COC(=O)C1CN(C#N)N(c2ccc(Cl)cc2)C12c1ccccc1-c1ccccc12 (stereo not given),"1.84 µM [falling, full curve]","2.59 µM [rising, full curve, poor fit]"

SMILES,AC50 [1],AC50 [2]
c1ccc2c(CNC3CCCCCC3)c[nH]c2c1,"23.1 µM [falling, single point]",–
Cc1cccc(CNCCc2c[nH]c3ccccc23)c1,"22.4 µM [falling, single point]",–
COc1ccc(/C=N/Nc2nc3ccccc3c(=O)[nH]2)cc1,"6.31 µM [falling, partial curve]",–
CCOc1cc(/C=C\[N+](=O)[O-])ccc1OCC(=O)Nc1ccccc1C,"22.4 µM [falling, partial curve, poor fit]",–
CC(=O)[C@@]1(O)CCC2C3CC=C4C[C@@H](O)CC[C@]4(C)C3CC[C@@]21C (stereo not given in full),"5.17 µM [rising, full curve, poor fit]",–
COc1ccc(CCNC(=O)c2c(N)n(CCN3CCOCC3)c3nc4ccccc4nc23)cc1OC,"35.5 µM [falling, single point]",–
c1ccc2c3c([nH]c2c1)CNCC3,"29.1 µM [rising, single point]",–
N#Cc1ccc(NC(=O)CN2C(=O)NC3(CCCCCCC3)C2=O)cc1Cl,"16.4 µM [falling, single point]",–
O=C1C(=O)c2cccc3cccc1c23,"10.3 µM [rising, partial curve]","6.51 µM [falling, partial curve]"
O=c1c2ccccc2nc(N/N=C/c2ccccc2)n1O,"6.31 µM [falling, full curve]",–
Clc1ccc(C(c2ccc(Cl)cc2)n2cc[n+](CC(OCc3ccc(Cl)cc3Cl)c3ccc(Cl)cc3Cl)c2)cc1 (stereo not given),"29.1 µM [falling, single point]",–
COc1ccccc1N(Cc1cc(=O)[nH]c2ccccc12)C(=O)c1cccc([N+](=O)[O-])c1,"12.6 µM [falling, partial curve, poor fit]",–
COC(=O)C1=C(c2ccc(OC(F)(F)F)cc2)C[C@@H]2CC[C@H]1N2C(=O)NCc1cccc2ccccc12,"2.91 µM [falling, partial curve, poor fit]",–
NC(=O)CC(NC(=O)c1ccc(Br)cc1)c1ccc(N2CCCCCCC2)c([N+](=O)[O-])c1 (stereo not given),"11.2 µM [falling, partial curve]",–
Cc1cccc(OCCn2c(=O)oc3ccc(C)cc32)c1,"3.55 µM [rising, single point]",–
CCOC(=O)c1ccc2c(c1)n(Cc1ccccc1)c(C)[n+]2CC,"3.16 µM [falling, partial curve, poor fit]",–
CCOC(=O)C1CCN(C=C2C(=O)N(C)C(=S)N(C)C2=O)CC1,"18.4 µM [falling, single point]",–
O=c1oc(Nc2ccccc2F)nc2ccccc12,"2.51 µM [falling, full curve]",–
CN(C(=O)Oc1ccc(F)cc1)c1ccccc1,"35.5 µM [rising, single point]",–
CCCCNC(=O)Nc1ccc(C(O)(C(=O)OC)C(F)(F)F)cc1 (stereo not given),"11.2 µM [rising, single point]",–

SMILES,AC50 [1],AC50 [2]
N#CC(C#N)=C(C#N)c1ccc(Nc2ccccc2)cc1,"11.2 µM [falling, partial curve]",–
Cc1ccc(CN2CCN(Cc3ccccc3)CC2)cc1,"22.4 µM [rising, single point]",–
O=c1[nH]c(=S)n(C2CC2)c(O)c1C=Nc1ccc2c(c1)OCO2,"10 µM [rising, partial curve, poor fit]",–
Cc1cc(O)c2c(c1)C(=O)C13C(=C2O)C(=O)[C@H]2[C@@H](O)[C@@H]1[C@H]1[C@H](O)[C@@H]3C(=O)C3=C(O)c4c(O)cc(C)cc4C(=O)C312 (stereo not given in full),"20.6 µM [falling, single point]","32.6 µM [rising, partial curve, poor fit]"
Nc1ccc(Cl)cc1C(=O)c1ccccc1,"0.282 µM [rising, full curve, poor fit]",–
COc1ccc(Cl)cc1N=Cc1c(O)n(C)c(=O)n(C)c1=O,"35.5 µM [falling, single point]",–
O=C(CCCCn1c(=O)[nH]c2ccccc2c1=O)N1CCN(c2cccc(C(F)(F)F)c2)CC1,"3.16 µM [falling, single point]",–
C=CCN1C(=O)/C(=C\c2ccc(N3CCOCC3)o2)C(=O)NC1=S,"20.6 µM [falling, single point]",–
CCCCN=C[C@]12CCC(O)CC1(O)CCC1[C@@H]2CC[C@]2(C)[C@H](C3C=CC(=O)O3)CCC12O (stereo not given in full),"0.355 µM [rising, partial curve, poor fit]",–
CCOP(=O)(OCC)C(NC(=O)Nc1cccc(Cl)c1)C(N)=O (stereo not given),"0.146 µM [rising, full curve, poor fit]",–
COc1cc(/C=C2\C(=O)ON=C2c2ccccc2)cc(Cl)c1O,"12.6 µM [rising, partial curve, poor fit]",–
N#CSCC(=O)N1c2ccccc2CCc2ccccc21,"29.1 µM [rising, single point]","29.1 µM [falling, single point]"
Cc1onc(-c2c(Cl)cccc2Cl)c1/C(N)=N/OC(=O)N(C)C,"35.5 µM [rising, partial curve, poor fit]",–
O=P(c1ccccc1)(c1ccccc1)C(c1ccccn1)P(=O)(c1ccccc1)c1ccccc1,"5.62 µM [rising, single point]",–
O=[N+]([O-])c1ccc(N2CCCCCC2)c2nonc12,"7.08 µM [rising, full curve, poor fit]",–
COc1cc(Cl)c(C)cc1NC(=O)CCCn1c(=O)oc2ccccc21,"16.4 µM [falling, partial curve, poor fit]",–
COC(=O)[C@@H]1[C@@H](C(=O)OC)C2(c3ccccc3-c3ccccc32)N(c2ccc(Cl)cc2)N1C#N,"20.6 µM [falling, single point]",–
CC(C)CCOP(=O)(c1ccc(N(C)C)cc1)C(O)c1ccc(C(C)C)cc1 (stereo not given),"10 µM [falling, single point]",–
Cc1cc(C(=O)Nc2ccccc2)nn1C(C)(C)C,"17.8 µM [falling, single point]",–
O=C(NC(=S)N1C[C@H]2C[C@H](C1)c1cccc(=O)n1C2)c1ccc(Cl)cc1Cl,"4.47 µM [rising, full curve, poor fit]",–

# Retrieved one by one from above, five records:
SMILES,AC50 [1],AC50 [2]
COCCNC(=O)c1c(NC(=O)c2ccc(Br)o2)n(Cc2ccccc2)c2nc3ccccc3nc12,–,"29.1 µM [falling, single point]"
CCN1C(=O)N(CC)C(=O)C2(Cc3ccccc3N3CCN(c4ccccc4)CC32)C1=O (stereo not given),"4.47 µM [falling, partial curve]",–
CCN(CC)C(=O)Oc1ccc(Cl)c2ccccc12,"35.5 µM [rising, single point]",–
O=C1C(=O)c2cccc3cccc1c23,"10.3 µM [rising, partial curve]","6.51 µM [falling, partial curve]"
O=P(c1ccccc1)(c1ccccc1)C(c1ccccn1)P(=O)(c1ccccc1)c1ccccc1,"5.62 µM [rising, single point]",–
